Experimental data: publication PMC11257966
These are yes or no findings as the source states them, for the method shown.

Chains of the proteins cited; added tags and fusions are not shown. Lines headed by an entry give the natural chain unless they say otherwise; changes in a name come on top.
UniProt P38863: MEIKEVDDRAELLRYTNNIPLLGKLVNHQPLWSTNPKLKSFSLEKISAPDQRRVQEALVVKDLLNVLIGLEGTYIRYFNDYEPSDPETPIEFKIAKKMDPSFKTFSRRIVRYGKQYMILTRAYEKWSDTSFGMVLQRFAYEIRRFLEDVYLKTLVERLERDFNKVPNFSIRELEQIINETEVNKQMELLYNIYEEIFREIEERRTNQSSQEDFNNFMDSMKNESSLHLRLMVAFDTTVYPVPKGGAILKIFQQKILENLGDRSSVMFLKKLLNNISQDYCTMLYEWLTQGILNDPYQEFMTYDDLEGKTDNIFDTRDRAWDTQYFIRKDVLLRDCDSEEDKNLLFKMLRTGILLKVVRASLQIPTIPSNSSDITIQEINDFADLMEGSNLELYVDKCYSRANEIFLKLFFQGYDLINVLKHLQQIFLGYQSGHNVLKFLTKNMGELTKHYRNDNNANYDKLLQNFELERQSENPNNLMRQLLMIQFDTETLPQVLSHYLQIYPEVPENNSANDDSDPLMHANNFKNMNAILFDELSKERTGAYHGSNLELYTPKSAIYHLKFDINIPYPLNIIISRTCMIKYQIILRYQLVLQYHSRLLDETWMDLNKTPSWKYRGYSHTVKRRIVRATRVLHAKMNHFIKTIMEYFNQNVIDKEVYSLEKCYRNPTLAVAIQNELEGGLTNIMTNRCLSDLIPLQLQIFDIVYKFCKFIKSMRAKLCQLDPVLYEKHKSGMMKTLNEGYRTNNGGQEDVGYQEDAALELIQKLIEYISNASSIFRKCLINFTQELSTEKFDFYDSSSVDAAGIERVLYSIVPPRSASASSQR
UniProt P53540: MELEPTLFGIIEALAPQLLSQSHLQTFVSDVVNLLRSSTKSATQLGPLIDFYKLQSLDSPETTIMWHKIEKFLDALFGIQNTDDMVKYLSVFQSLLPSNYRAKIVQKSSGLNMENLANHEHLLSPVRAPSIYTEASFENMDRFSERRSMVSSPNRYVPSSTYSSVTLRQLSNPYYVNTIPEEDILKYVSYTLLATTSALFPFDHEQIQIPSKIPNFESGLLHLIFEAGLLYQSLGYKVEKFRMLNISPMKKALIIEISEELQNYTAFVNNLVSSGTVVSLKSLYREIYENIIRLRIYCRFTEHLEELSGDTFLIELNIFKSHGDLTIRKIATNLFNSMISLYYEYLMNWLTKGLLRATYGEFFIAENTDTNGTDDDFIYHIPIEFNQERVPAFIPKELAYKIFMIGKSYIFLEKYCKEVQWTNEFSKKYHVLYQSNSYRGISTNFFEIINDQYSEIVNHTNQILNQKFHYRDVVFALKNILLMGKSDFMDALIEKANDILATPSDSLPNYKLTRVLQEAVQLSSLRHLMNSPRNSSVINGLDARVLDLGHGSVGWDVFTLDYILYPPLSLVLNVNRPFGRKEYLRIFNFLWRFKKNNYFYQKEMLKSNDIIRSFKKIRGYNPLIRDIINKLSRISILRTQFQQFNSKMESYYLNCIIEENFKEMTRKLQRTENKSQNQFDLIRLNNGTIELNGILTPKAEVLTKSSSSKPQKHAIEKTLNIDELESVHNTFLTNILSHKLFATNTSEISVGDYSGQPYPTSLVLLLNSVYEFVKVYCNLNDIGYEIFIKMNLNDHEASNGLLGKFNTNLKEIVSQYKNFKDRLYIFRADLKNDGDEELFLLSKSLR
UniProt P53378: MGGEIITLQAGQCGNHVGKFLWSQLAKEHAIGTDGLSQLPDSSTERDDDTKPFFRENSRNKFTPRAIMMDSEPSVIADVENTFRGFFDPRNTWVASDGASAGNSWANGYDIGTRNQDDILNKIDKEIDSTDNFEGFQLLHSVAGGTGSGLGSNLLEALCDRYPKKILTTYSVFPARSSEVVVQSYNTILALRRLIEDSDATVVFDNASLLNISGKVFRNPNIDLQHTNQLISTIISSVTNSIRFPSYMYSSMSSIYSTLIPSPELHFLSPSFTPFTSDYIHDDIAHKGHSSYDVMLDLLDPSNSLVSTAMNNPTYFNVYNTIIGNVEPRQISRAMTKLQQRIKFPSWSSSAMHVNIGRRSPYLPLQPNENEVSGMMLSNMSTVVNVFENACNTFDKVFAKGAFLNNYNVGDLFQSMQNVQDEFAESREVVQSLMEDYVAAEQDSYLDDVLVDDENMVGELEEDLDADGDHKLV
UniProt P32380: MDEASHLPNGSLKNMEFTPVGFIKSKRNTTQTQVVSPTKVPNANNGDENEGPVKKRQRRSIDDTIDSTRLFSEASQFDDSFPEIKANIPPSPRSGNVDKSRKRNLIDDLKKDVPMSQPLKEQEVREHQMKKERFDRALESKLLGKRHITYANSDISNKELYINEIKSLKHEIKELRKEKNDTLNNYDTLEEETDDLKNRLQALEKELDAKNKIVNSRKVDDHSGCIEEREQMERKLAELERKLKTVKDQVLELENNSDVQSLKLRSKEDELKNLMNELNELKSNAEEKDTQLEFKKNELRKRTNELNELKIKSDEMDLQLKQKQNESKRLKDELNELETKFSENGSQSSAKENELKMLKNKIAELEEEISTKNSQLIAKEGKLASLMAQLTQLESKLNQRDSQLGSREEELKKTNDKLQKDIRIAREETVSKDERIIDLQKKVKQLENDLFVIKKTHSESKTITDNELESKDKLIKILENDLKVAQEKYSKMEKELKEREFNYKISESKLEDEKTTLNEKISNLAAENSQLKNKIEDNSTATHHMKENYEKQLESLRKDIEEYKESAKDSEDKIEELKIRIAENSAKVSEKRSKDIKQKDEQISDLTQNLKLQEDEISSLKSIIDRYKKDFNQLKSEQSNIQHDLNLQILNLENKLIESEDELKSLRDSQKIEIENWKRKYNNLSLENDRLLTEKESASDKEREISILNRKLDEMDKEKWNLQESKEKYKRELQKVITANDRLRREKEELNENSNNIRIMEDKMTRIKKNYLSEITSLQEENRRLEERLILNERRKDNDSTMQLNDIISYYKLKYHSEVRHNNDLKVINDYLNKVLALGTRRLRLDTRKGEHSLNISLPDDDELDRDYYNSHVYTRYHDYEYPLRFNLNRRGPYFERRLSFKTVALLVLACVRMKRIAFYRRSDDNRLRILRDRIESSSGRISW

Legend:
[1] = biological target: T1, recombinant budding yeast γTuRC (composed of Spc97, Spc98, Tub4 and Spc110 amino acids 1–400, but without yeast tubulin) (S. cerevisiae) (UniProt P38863+P53540+P53378+P32380); experiment: SEC; gel-filtration reconstitution of recombinant γTuRC with Stu2; methods not described; both purified
[2] = biological target: T1, recombinant budding yeast γTuRC (composed of Spc97, Spc98, Tub4 and Spc110 amino acids 1–400, but without yeast tubulin) (S. cerevisiae); experiment: cross-linking; CLMS of recombinant Stu2 with recombinant budding yeast γTuRC, without yeast tubulin; follow-up experiment, methods not described; both purified

B1: recombinant Stu2 (protein, UniProt P46675 1-888)
chain: MSGEEEVDYTTLPLEERLTYKLWKARLEAYKELNQLFRNSVGDISRDDNIQIYWRDPTLFAQYITDSNVVAQEQAIVALNSLIDAFASSSLKNAHNITLISTWTPLLVEKGLTSSRATTKTQSMSCILSLCGLDTSITQSVELVIPFFEKKLPKLIAAAANCVYELMAAFGLTNVNVQTFLPELLKHVPQLAGHGDRNVRSQTMNLIVEIYKVTGNNSDLLEEILFKKLKPIQVKDLHKLFAKVGDEPSSSKMLFEWEKRELEKKRSQEEEARKRKSILSNDEGEYQIDKDGDTLMGMETDMPPSKQQSGVQIDTFSMLPEETILDKLPKDFQERITSSKWKDRVEALEEFWDSVLSQTKKLKSTSQNYSNLLGIYGHIIQKDANIQAVALAAQSVELICDKLKTPGFSKDYVSLVFTPLLDRTKEKKPSVIEAIRKALLTICKYYDPLASSGRNEDMLKDILEHMKHKTPQIRMECTQLFNASMKEEKDGYSTLQRYLKDEVVPIVIQIVNDTQPAIRTIGFESFAILIKIFGMNTFVKTLEHLDNLKRKKIEETVKTLPNFSIASGSTHSTIETNKQTGPMENKFLLKKSSVLPSKRVASSPLRNDNKSKVNPIGSVASASKPSMVAANNKSRVLLTSKSLATPKNVVANSTDKNEKLIEEYKYRLQKLQNDEMIWTKERQSLLEKMNNTENYKIEMIKENEMLREQLKEAQSKLNEKNIQLRSKEIDVNKLSDRVLSLENELRNMEIELDRNKKRNDTNLQSMGTISSYSIPSSTVSSNYGVKSLSSALPFKEEEDVRRKEDVNYERRSSESIGDLPHRVNSLNIRPYRKNGTGVSSVSDDLDIDFNDSFASEESYKRAAAVTSTLKARIEKMKAKSRREGTTRT
binding [1]: no binding
binding [2]: no binding
